# Experimental data taken from patent US20250049885A1, “HYALURONIC ACID BINDING PEPTIDE AS A THERAPEUTIC TO CONTROL FIBROBLAST ACTIVATION AND FIBROTIC CAPSULE FORMATION” (SOUTH DAKOTA BOARD OF REGENTS, priority 2023, published 2025).
# Not every detail of the peptide structures is certain; ends, links or a residue may be inferred. Ends that are not written are not given here.
# Legend:
# [1] = tested on: primary dermal fibroblasts; assay: Cell morphology and alignment on functionalized surfaces (brightfield); format: cell-based, human; settings: vs cells on the other surface groups
# Description: FIGS. 3A-B depicts primary dermal fibroblasts seeded at 50.000 cells/154 mm^2 and incubated for 10 days on HABP and Scrambled HABP functionalized surfaces. APTMS surfaces were treated with 2% APTMS only and Untreated surfaces had no treatment other than PBS rinse. […] Decellularization occurred on Day 11. (Representative of average and standard deviation; N=3; scale bar represents 100 μm). […] (Representative of average and standard deviation; N=6).
# APTMS functionalized and untreated experimental groups were established.
# Untreated and HABP functionalized surfaces did have some fibroblasts with higher levels of alignment, but the majority of fibroblast cells in those groups maintained a similar distribution of alignment to the APTMS cultures.
# [2] = tested on: Col1 fibers deposited by dermal fibroblasts; assay: Type I Collagen immunostaining and fiber analysis (CT-Fire); format: cell-based, human
# Source text: FIGS. 5A-G show Type I Collagen immunostaining results. FIG. 5A is a color cell culture stain: Fluorescent images of Col1 at 20× magnification. The scale bar represents 100 μm. FIG. 5B is a color image showing CT-Fire overlays of Col1 fibers from the above images, where different fiber characteristics are shown via different coloration. FIG. 5C is a graphical representation of the distribution of the number of Col1 fibers in each treatment group. FIG. 5D is a graphical representation of the distribution of Col1 fiber lengths in each treatment group. There is a notable difference between the APTMS group and the Untreated and HABP groups. FIG. 5E is a graphical representation of the measurement of fiber straightness. […] The closer the value is to one, the straighter individual fibers within the treatment groups are. FIG. 5F is a graphical representation of the Col1 fiber width comparison between treatment groups. A significant difference was found between the Untreated experimental group and the HABP and APTMS experimental groups, also indicating the APTMS effect on fiber dimensions. FIG. 5G is a graphical representation of the Col1 fiber number varies between experimental groups, but not to a significant degree. H. Measure of degree of fiber angles between experimental groups. (Representative of average and standard deviation; N=9); * p-value<0.01; ** p-value<0.001; all units are in microns).
# Immunostaining was done using α-SMA (D4K9N, Cell Signal) and Type I collagen primary antibodies. The cells were first rinsed with warm PBS (37° C.) for 5 minutes to remove media residue from the surface. The cytosol was removed from the cells using ice cold cytoskeletal stabilization buffer (50 mM Sodium chloride, 0.5% Triton X-100, 10 mM PIPES, 2.5 mM magnesium chloride, 1 mM EGTA, 0.3M sucrose, protease inhibitors, phosphatase inhibitors) for 1 minute followed immediately by fixation with 3.7% paraformaldehyde for 15 minutes. PBS was used to rinse 3 times for 15 minutes before the cultures were treated with permeabilization buffer (PB) (1×PBS, 2% bovine serum albumin, 0.1% Triton X-100) for 45 minutes. Diluted primary antibody in PB was added to the cells and cultured overnight at 4° C. and then washed again with the same series of PBS washes. After this point, all further staining was conducted in the dark to preserve fluorescence. […]
# Immunostaining for Type I Collagen (Col1) was done to determine the impact of the HABP surface treatment on ECM formation. […] Col1 fibers were analyzed and the analysis found significant differences in fiber angle, straightness, and width.
# [3] = Alcian Blue staining of surfaces treated with HA (HA binding ability)
# [4] = tested on: α-SMA and F-actin in dermal fibroblasts; assay: Actin and α-SMA immunostaining of dermal fibroblasts; format: cell-based, human; settings: 48 hours in culture
# [5] = tested on: HA deposited by fibroblast cells; assay: Alcian Blue staining of fibroblast derived matrices (HA deposition); format: cell-based, human; settings: FDMs, mean intensity by imageJ
sequence,measurement,setting,value
"GAHWQFNALTVR [HABP, GAHWQFNALTVR]",Cell morphology,[1],no significant differences in morphology
same,Col1 fiber length shorter than APTMS cultures,[2]; not to a significant degree,5%
same,Number of Col1 fibers vs the two other experimental groups,[2]; not to a significant degree (FIG. 5G),higher number
same,Col1 fiber straightness,[2]; p-value<0.001,significantly higher
same,Col1 fiber width narrower than untreated cultures,[2]; p-value<0.01,5%
same,Alcian Blue Coverage (%) after HA treatment vs Control surface,[3],higher
same,α-SMA signal less than controls,[4],~45%
same,Normalized intensity of α-SMA to total F-actin signal vs controls,[4]; p-value of 0.00038,significantly lower
same,Mean intensity from the fluorescent images vs the two controls,[4]; FIG. 6D,significantly lower
same,Myofibroblast differentiation and contraction (actin stress fibers),[4]; vs controls,reduced
same,Alcian Blue intensity higher than APTMS treated surfaces,[5],1.55%
same,Alcian Blue intensity higher than untreated surfaces,[5],2.43%
